Experimental findings from patent US20250368638A1, “BICYCLIC INHIBITORS OF NICOTINAMIDE […], COMPOSITIONS AND USES THEREOF” (President and Fellows of Harvard College, priority 2021, published 2025) are described below.

For this data set, the system named is Caco-2 cell monolayer. As to the kind of experiment: Assessment of Caco-2 cell monolayer integrity (TEER, Lucifer Yellow leakage). Type of data set: in vitro ADME. The following applies: Caco-2 monolayer; for LY Leakage A-B / LY Leakage B-A: Lucifer Yellow.

`CC(C)NCC(O)COc1cccc2ccccc12` (stereo not shown) [Propranolol]: the “TEER A-B” value worked out at 442 W × cm^2, the “TEER B-A” value worked out at 431 W × cm^2, the “LY Leakage A-B” value was determined as 0.28% and the “LY Leakage B-A” value was found to be 0.30%.
In the same order, the values of `COc1cc2nc(N3CCN(C(=O)c4ccco4)CC3)nc(N)c2cc1OC` [Prazosin] are 434 W × cm^2, 427 W × cm^2, 0.30% and 0.29%.
In the same order, the values of `C[C@H]1O[C@@H](O[C@H]2[C@@H](O)C[C@H](O[C@H]3[C@@H](O)C[C@H](O[C@H]4CC[C@@]5(C)[C@H](CC[C@@H]6[C@@H]5C[C@@H](O)[C@]5(C)[C@@H](C7=CC(=O)OC7)CC[C@]65O)C4)O[C@@H]3C)O[C@@H]2C)C[C@H](O)[C@@H]1O` [Digoxin] are 470 W × cm^2, 457 W × cm^2, 0.27% and 0.28%.
The like results for `C[C@@H]1Cc2cc(C(N)=O)cnc2N1` [Compound 11, (2R)-2-methyl-2,3-dihydro-1H-pyrrolo[2,3-b]pyridine-5-carboxamide] were, in that order, 555 W × cm^2, 496 W × cm^2, 0.34% and 0.33%.
